Data as given in PubChem BioAssay AID1671195 (Yale University, 2021).
Screen: 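Genes whose knockdown alters LDL uptake in liver cancer cells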 (primary screen). Cell system: human Huh7 hepatoma cells. Reagents: siRNA pool against human genes, 18 nM. Duration: about 2 to 2.5 days of knockdown, then 8 h LDL uptake. Conditions: DiI-labelled LDL at 30 µg/ml for 8 h, in lipoprotein-deficient serum medium. Measurement: 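Fluorescent LDL signal imaged in cells, scaled to the plate median, robust z-score for each replicate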. Reading the numbers: robust z-score: higher = more LDL uptake after knockdown. Active means: 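a gene counts as active if at least two replicate z-scores exceed ±2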.
Shown is a random part of about 22,000 reagents. About 1,510 of them (6.9%) were called active. 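Active includes knockdowns raising or lowering LDL uptake; positive z-scores mean more uptake, negative mean less.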 Reagents against one gene are numbered here. No sequences are given here.

Gene	pool no.	robust z-score, replicate 1	robust z-score, replicate 2	robust z-score, replicate 3	call
PIGV (phosphatidylinositol glycan anchor biosynthesis class V)	1	0.873	-1.37	0.466	inactive
SLC51A	1	-0.269	-0.366	-0.21	inactive
HDIP1 (HDAC and MIER1 interacting protein 1)	1	-2.07	-1.89	-1.47	inactive
CCDC17 (coiled-coil domain containing 17)	1	0.911	0.463	-0.237	inactive
ANKRD20A9P (ankyrin repeat domain 20 family member A9, pseudogene)	1	0.516	0.19	0.598	inactive
TRA2B (transformer 2 beta homolog)	1	0.536	0.576	0.718	inactive
LOC441937 (retired record)	1	-0.431	-0.593	-0.317	inactive
MEOX2 (mesenchyme homeobox 2)	1	-0.566	-1.08	-0.16	inactive
NMRK1 (nicotinamide riboside kinase 1)	1	-0.654	-0.367	-0.484	inactive
IGFBP5 (insulin like growth factor binding protein 5)	1	-0.123	0.00873	0.211	inactive
IL16 (interleukin 16)	1	-1.44	-1.08	-1.44	inactive
ABHD10 (abhydrolase domain containing 10, depalmitoylase)	1	1.93	-1.28	0.606	inactive
PSMD7 (proteasome 26S subunit, non-ATPase 7)	1	2.01	1.36	2.89	active
FUT9 (fucosyltransferase 9)	1	0.154	1	0.654	inactive
ZNF34 (zinc finger protein 34)	1	0.0486	0.241	-0.0688	inactive
NFKBIE (NFKB inhibitor epsilon)	1	-1.48	-1.96	-2.25	active
MICAL2	1	1.27	0.837	0.705	inactive
MICAL2	2	-0.839	-0.289	-0.733	inactive
SIRPG (signal regulatory protein gamma)	1	0.504	1.52	0.795	inactive
GALNS (galactosamine (N-acetyl)-6-sulfatase)	1	1.57	1.24	1.41	inactive
ACOT12 (acyl-CoA thioesterase 12)	1	-0.239	0.584	0.23	inactive
IL2 (interleukin 2)	1	4.6	4.2	5.22	active
SARS1 (seryl-tRNA synthetase 1)	1	-0.2	-2.78	-1.8	inactive
CKAP2 (cytoskeleton associated protein 2)	1	3.59	4.48	1.76	active
ADAMTSL3 (ADAMTS like 3)	1	0.905	0.954	0.713	inactive
AMBP (alpha-1-microglobulin/bikunin precursor)	1	1.7	1.4	1.6	inactive
IFT25 (intraflagellar transport 25)	1	0.412	0.68	0.157	inactive
GATAD1 (GATA zinc finger domain containing 1)	1	-0.752	-0.952	-0.0912	inactive
ATF6 (activating transcription factor 6)	1	-0.591	-0.795	-0.398	inactive
SSH1 (slingshot protein phosphatase 1)	1	1.19	0.768	1.21	inactive
GML (glycosylphosphatidylinositol anchored molecule like)	1	1.33	0.595	1.77	inactive
LOC440312 (retired record)	1	0.559	0.928	0.709	inactive
MYCNOS (MYCN opposite strand)	1	-0.367	2	1.96	inactive
SPA17 (sperm autoantigenic protein 17)	1	-0.391	-1.29	-0.272	inactive
ZNF839 (zinc finger protein 839)	1	-1.87	-0.471	0.171	inactive
NMT2 (N-myristoyltransferase 2)	1	-0.857	-0.0178	-1.05	inactive
TBX18 (T-box transcription factor 18)	1	-0.3	0.111	0.189	inactive
AXDND1 (axonemal dynein light chain domain containing 1)	1	-0.212	-0.261	-0.234	inactive
ZNF232 (zinc finger protein 232)	1	2.99	1.98	2.13	active
GSPT2 (G1 to S phase transition 2)	1	0.0515	0.87	1.74	inactive
AP5M1 (adaptor related protein complex 5 subunit mu 1)	1	-0.0488	-0.126	0.257	inactive
LOC442434 (retired record)	1	-0.128	-0.00579	-0.109	inactive
CNTNAP4 (contactin associated protein family member 4)	1	-0.625	-1.16	-0.09	inactive
ERAP2 (endoplasmic reticulum aminopeptidase 2)	1	-0.325	-0.739	-0.315	inactive
PTGES3 (prostaglandin E synthase 3)	1	-1.45	-1.56	-0.363	inactive
MARCHF9 (membrane associated ring-CH-type finger 9)	1	0.747	1.09	0.00166	inactive
FGFR4 (fibroblast growth factor receptor 4)	1	-0.129	-1.11	-1.28	inactive
LOC400682 (zinc finger protein 100-like)	1	0.61	0.626	0.894	inactive
SCAND2P (SCAN domain containing 2 pseudogene)	1	-0.978	-1.17	-1.35	inactive
TUBB2A (tubulin beta 2A class IIa)	1	1.06	1.43	0.861	inactive
MRPS12 (mitochondrial ribosomal protein S12)	1	-0.867	0.115	1.55	inactive
ADAT3 (adenosine deaminase tRNA specific 3)	1	-1.17	0.0142	-0.191	inactive
NME1 (NME/NM23 nucleoside diphosphate kinase 1)	1	4.29	3.64	4.1	active
ZDHHC14 (zDHHC palmitoyltransferase 14)	1	0.724	0.858	0.67	inactive
ACOX1 (acyl-CoA oxidase 1)	1	-0.662	-0.2	0.114	inactive
ILRUN	1	-0.91	-0.419	-0.928	inactive
PAM16 (presequence translocase associated motor 16)	1	-0.0831	-0.31	-2.53	inactive
BMP3 (bone morphogenetic protein 3)	1	-0.258	-1.3	0.602	inactive
ZNF490 (zinc finger protein 490)	1	-1.33	-1.58	-0.862	inactive
LOC440680 (retired record)	1	-1.16	-1.24	-0.805	inactive
SNX8 (sorting nexin 8)	1	-1.26	-0.431	-0.306	inactive
MICU3 (mitochondrial calcium uptake 3)	1	-0.456	-0.675	-0.584	inactive
ADGRG6 (adhesion G protein-coupled receptor G6)	1	-1.28	-0.507	-1.5	inactive
LOC440313 (protein enabled homolog)	1	2.03	2.05	1.68	active
EIF4B (eukaryotic translation initiation factor 4B)	1	-0.655	-0.759	0.00204	inactive
KHDC1 (KH domain containing 1)	1	0.936	0.83	0.446	inactive
LOC440788 (retired record)	1	1.24	1.18	1.56	inactive
SUPT20HL2 (SUPT20H like 2)	1	0.508	0.401	0.761	inactive
SUPT20HL2 (SUPT20H like 2)	2	-0.59	-0.273	-0.399	inactive
